Test results from patent US7666868B2, “N-sulphonylpyrroles and their use as histone deacetylase inhibitors” (4SC AG, priority 2005, dated 2010).
Some entries share one result that the patent states for a list of compounds. Some compounds share one range, which may span the group rather than tell each member.

The chains behind the UniProt entries cited, without tags or fusion partners.
UniProt Q13547, whole entry: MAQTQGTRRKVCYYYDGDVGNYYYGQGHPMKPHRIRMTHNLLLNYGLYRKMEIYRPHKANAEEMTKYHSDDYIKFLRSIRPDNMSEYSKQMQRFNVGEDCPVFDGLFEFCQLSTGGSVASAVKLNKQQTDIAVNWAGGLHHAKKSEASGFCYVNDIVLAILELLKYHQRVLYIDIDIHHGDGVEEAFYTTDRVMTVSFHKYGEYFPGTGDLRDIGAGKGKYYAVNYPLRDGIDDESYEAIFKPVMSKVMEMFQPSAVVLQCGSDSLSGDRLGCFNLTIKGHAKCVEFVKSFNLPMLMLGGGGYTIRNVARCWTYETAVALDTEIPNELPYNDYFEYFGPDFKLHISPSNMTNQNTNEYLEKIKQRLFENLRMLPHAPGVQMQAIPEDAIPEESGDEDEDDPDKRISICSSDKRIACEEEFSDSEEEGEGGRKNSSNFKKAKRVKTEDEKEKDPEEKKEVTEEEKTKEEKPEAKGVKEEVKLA

Legend:
[1] = system: HDAC activity derived from HeLa cell nuclear extracts (mixture of class I and II HDACs); test: Fluorimetric HDAC activity assay with HeLa cell nuclear extract; format: biochemical, human; settings: substrate Ac-NH-GGK(Ac)-AMC 25 μM, 90 min at 30° C., limits printed with their own units (nM to μM), read-out: IC50 (HDAC inhibitory activity)
[2] = target: T1, recombinant flag-HDAC1 (Human HDAC1 fused with the flag epitope) (Homo sapiens, UniProt Q13547); test: rHDAC1 enzymatic assay; format: biochemical; settings: flag-HDAC1, 6 μM Ac-NH-GGK(Ac)-AMC, 3 h at 30° C.; limits printed with their own units (nM to μM)
T1 construct: made in house

Row | SMILES | IC50 [1] | IC50 [2]
1 | O=C(/C=C/c1ccn(S(=O)(=O)c2cc(-c3ccccc3)ccc2CCCN2CCOCC2)c1)NO [Compound 45, (E)-N-Hydroxy-3-{1-[4-(3-morpholin-4-yl-propyl)-biphenyl-3-sulfonyl]-1H-pyrrol-3-yl}-acrylamide] | 0.32 to 10000 nM | 1 to 940 nM
2 | Nc1ccccc1NC(=O)/C=C/c1ccn(S(=O)(=O)c2ccc(-c3cccc(CO)c3)cc2)c1 [Compound 51, (E)-N-(2-Amino-phenyl)-3-[1-(3′-hydroxymethyl-biphenyl-4-sulfonyl)-1H-pyrrol-3-yl]-acrylamide] | 0.32 to 10000 nM | 1 to 940 nM
3 | CS(=O)(=O)Nc1cccc(-c2ccc(S(=O)(=O)n3ccc(/C=C/C(=O)NO)c3)cc2)c1 [Compound 22, (E)-N-hydroxy-3-[1-(3′-methanesulfonylamino-biphenyl-4-sulfonyl)-1H-pyrrol-3-yl]-acrylamide] | 0.32 to 10000 nM | 1 to 940 nM
4 | CN(C)CCNC(=O)c1ccc(-c2ccc(S(=O)(=O)n3ccc(C=CC(=O)NO)c3)cc2)cc1 [Compound 24, 4′-[3-(E)-2-Hydroxycarbamoyl-vinyl)-pyrrole-1-sulfonyl]-biphenyl-4-carboxylic acid (2-dimethylamino-othyl)-amide] | 0.32 to 10000 nM | 1 to 940 nM
5 | COc1ccc(-c2ccc(S(=O)(=O)n3ccc(/C=C/C(=O)NO)c3)cc2)cn1 [Compound 3, (E)-N-Hydroxy-3-{1-[4-(6-methoxy-pyridin-3-yl)-benzenesulfonyl]-1H-pyrrol-3-yl}-acrylamide] | 0.75 to 7500 nM | 1 to 940 nM
6 | CN1CCN(c2cc(-c3ccc(S(=O)(=O)n4ccc(/C=C/C(=O)NO)c4)cc3)ccn2)CC1 [Compound 28, (E)-N-Hydroxy-3-(1-{4-[2-(4-methyl-piperazin-1-yl)-pyridin-4-yl]-benzenesulfonyl}-1H-pyrrol-3-yl)-acrylamide] | 0.32 to 10000 nM | 1 to 940 nM
7 | CN(C)Cc1ccc(-c2ccc(S(=O)(=O)n3ccc(/C=C/C(=O)NO)c3)cc2)cc1 [Compound 26, (E)-3-[1-(4′-Dimethylaminomethyl-biphenyl-4-sulfonyl)-1H-pyrrol-3-yl]-N-hydroxy-acrylamide] | 0.32 to 10000 nM | 1 to 940 nM
8 | COc1ccc(-c2cccc(S(=O)(=O)n3ccc(/C=C/C(=O)Nc4ccccc4N)c3)c2)cn1 [Compound 14, (E)-N-(2-Amino-phenyl)-3-{1-[3-(6-methoxy-pyridin-3-yl)-benzenesulfonyl]-1H-pyrrol-3-yl}-acrylamide] | 0.32 to 10000 nM | 1 to 940 nM
9 | Cc1noc(C)c1-c1ccc(S(=O)(=O)n2ccc(/C=C/C(=O)Nc3ccccc3N)c2)cc1 [Compound 52, (E)-N-(2-Amino-phenyl)-3-{1-[4-(3,5-dimethyl-isoxazol-4-yl)-benzenesulfonyl]-1H-pyrrol-3-yl}-acrylamide] | 0.32 to 10000 nM | 1 to 940 nM
10 | COCCNCc1ccc(-c2cccc(S(=O)(=O)n3ccc(C=CC(=O)NO)c3)c2)cc1 [Compound 58, (E)-N-Hydroxy-3-(1-{4′-[(2-methoxy-othylamino)-methyl]-biphenyl-3-sulfonyl}-1H-pyrrol-3-yl)-acrylamide] | 0.32 to 10000 nM | 1 to 940 nM
11 | O=C(/C=C/c1ccn(S(=O)(=O)c2cccc(-c3ccc(OCCN4CCCC4)cc3)c2)c1)NO [Compound 43, (E)-N-Hydroxy-3-{1-[4′-(2-pyrrolidin-1-yl-ethoxy)-biphenyl-3-sulfonyl]-1H-pyrrol-3-yl}-acrylamide] | 0.32 to 10000 nM | 1 to 940 nM
12 | O=C(/C=C/c1ccn(S(=O)(=O)c2ccc(-c3cccc(CN4CCOCC4)c3)s2)c1)NO [Compound 50, (E)-N-Hydroxy-3-{1-[5-(3-morpholin-4-ylmethyl-phenyl)-thiophene-2-sulfonyl]-1H-pyrrol-3-yl}-acrylamide] | 0.32 to 10000 nM | 1 to 940 nM
13 | CN1CCN(CCOc2ccc(-c3cccc(S(=O)(=O)n4ccc(/C=C/C(=O)NO)c4)c3)cc2)CC1 [Compound 32, (E)-N-Hydroxy-3-(1-{4′-[2-(4-methyl-piperazin-1-yl)-ethoxy]-biphenyl-3-sulfonyl}-1H-pyrrol-3-yl)-acrylamide] | 0.32 to 10000 nM | 1 to 940 nM
14 | CN(C)CCNC(=O)c1cccc(-c2ccc(S(=O)(=O)n3ccc(C=CC(=O)NO)c3)cc2)c1 [Compound 25, 4′-[3-(E)-2-Hydroxycarbamoyl-vinyl)-pyrrole-1-sulfonyl]-biphenyl-3-carboxylic acid (2-dimethylamino-ethyl)-amide] | 0.32 to 10000 nM | 1 to 940 nM
15 | CN1CCN(c2cc(-c3cccc(S(=O)(=O)n4ccc(/C=C/C(=O)NO)c4)c3)ccn2)CC1 [Compound 33, (E)-N-Hydroxy-3-(1-{3-[2-(4-methyl-piperazin-1-yl)-pyridin-4-yl]-benzenesulfonyl}-1H-pyrrol-3-yl)-acrylamide] | 0.32 to 10000 nM | 1 to 940 nM
16 | O=C(/C=C/c1ccn(S(=O)(=O)c2cc(-c3ccccc3)ccc2CCN2CCOCC2)c1)NO [Compound 16, (E)-N-Hydroxy-3-{1-[4-(2-morpholin-4-yl-ethyl)-biphenyl-3-sulfonyl]-1H-pyrrol-3-yl}-acrylamide] | 0.32 to 10000 nM | 1 to 940 nM
17 | Cn1cc(-c2cccc(S(=O)(=O)n3ccc(/C=C/C(=O)NO)c3)c2)cn1 [Compound 12, (E)-N-Hydroxy-3-(1-[3-(1-methyl-1H-pyrazol-4-yl)-benzenesulfonyl]-1H-pyrrol-3-yl)-acrylamide] | 0.32 to 10000 nM | 1 to 940 nM
18 | CN(C)Cc1ccc(-c2ccc(S(=O)(=O)n3ccc(/C=C/C(=O)NO)c3)s2)cc1 [Compound 46, (E)-3-{1-[5-(4-Dimethylaminomethyl-phenyl)-thiophene-2-sulfonyl]-1H-pyrrol-3-yl}-N-hydroxy-acrylamide] | 0.32 to 10000 nM | 1 to 940 nM

Now from value to compound:

Row | IC50 [1] | IC50 [2] | SMILES
19 | 1.7 to 32000 nM | 1 to 940 nM | O=C(/C=C/c1ccn(S(=O)(=O)c2ccc(-c3ccc4c(c3)CCO4)cc2)c1)NO [Compound 70, (E)-3-{1-[4-(2,3-Dihydro-benzofuran-5-yl)-benzenesulfonyl]-1H-pyrrol-3-yl}-N-hydroxy-acrylamide]
20 | 1.7 to 32000 nM | 1 to 940 nM | O=C(C=Cc1ccn(S(=O)(=O)c2ccc(-c3ccc(OCCN4CCCC4)cc3)s2)c1)NO [Compound 99, (E)-N-Hydroxy-3-(1-{5-([4-(2-pyrrolidin-1-yl-ethoxy)-phenyl]-thiophene-2-sulfonyl}-1H-pyrrol-3-yl)-acrylamide]
21 | 1.7 to 32000 nM | 1 to 940 nM | CN1CCN(c2cc(-c3ccc(S(=O)(=O)n4ccc(/C=C/C(=O)Nc5ccccc5N)c4)s3)ccn2)CC1 [Compound 106, (E)-N-(2-Amino-phenyl)-3-(1-{5-[2-(4-methyl-piperazin-1-yl)-pyridin-4-yl]-thiophene-2-sulfonyl}-1H-pyrrol-3-yl)-acrylamide]
22 | 1.7 to 32000 nM | 1 to 940 nM | CN1CCN(CCCOc2cccc(-c3ccc(S(=O)(=O)n4ccc(/C=C/C(=O)NO)c4)cc3)c2)CC1 [Compound 73, (E)-N-Hydroxy-3-(1-{3′-[3-(4-methyl-piperazin-1-yl)-propoxy]-biphenyl-4-sulfonyl}-1H-pyrrol-3-yl)-acrylamide]
23 | 1.7 to 32000 nM | 1 to 940 nM | CN(C)S(=O)(=O)c1ccc(-c2ccc(S(=O)(=O)n3ccc(/C=C/C(=O)NO)c3)s2)cc1 [Compound 100, (E)-3-{1-[5-(4-Dimethylsulfamoyl-phenyl)-thiophene-2-sulfonyl]-1H-pyrrol-3-yl}-N-hydroxy-acrylamide]
24 | 1.7 to 32000 nM | 1 to 940 nM | Cn1cc(-c2ccc(S(=O)(=O)n3ccc(/C=C/C(=O)Nc4ccccc4N)c3)s2)cn1 [Compound 104, (E)-N-(2-Amino-phenyl)-3-{1-[5-(1-methyl-1H-pyrazol-4-yl)-thiophene-2-sulfonyl]-1H-pyrrol-3-yl}-acrylamide]
25 | 1.7 to 32000 nM | 1 to 940 nM | CS(=O)(=O)Nc1ccc(-c2cccc(S(=O)(=O)n3ccc(/C=C/C(=O)Nc4ccccc4N)c3)c2)cc1 [Compound 101, (E)-N-(2-Amino-phenyl)-3-[1-(4′-methanesulfonylamino-biphenyl-3-sulfonyl)-1H-pyrrol-3-yl]-acrylamide]
26 | 0.32 to 10000 nM | 1 to 940 nM | O=C(/C=C/c1ccn(S(=O)(=O)c2cc(-c3ccccc3)ccc2CNC2CC2)c1)NO [Compound 63, (E)-3-[1-(4-Cyclopropylaminomethyl-biphenyl-3-sulfonyl)-1H-pyrrol-3-yl]-N-hydroxy-acrylamide]
27 | 1.7 to 32000 nM | 1 to 940 nM | CS(=O)(=O)NCc1ccc(-c2ccc(S(=O)(=O)n3ccc(/C=C/C(=O)Nc4ccccc4N)c3)cc2)cc1 [Compound 98, (E)-N-(2-Amino-phenyl)-3-{1-[4′-(methanesulfonylamino-methyl)biphenyl-4-sulfonyl]-1H-pyrrol-3-yl}-acrylamide]
28 | 1.7 to 32000 nM | 1 to 940 nM | CN1CCN(CCCOc2ccc(-c3ccc(S(=O)(=O)n4ccc(/C=C/C(=O)NO)c4)cc3)cc2)CC1 [Compound 79, (E)-N-Hydroxy-3-(1-{4′-[3-(4-methyl-piperazin-1-yl)-propoxy]-biphenyl-4-sulfonyl}-1H-pyrrol-3-yl)-acrylamide]
29 | 1.7 to 32000 nM | 1 to 940 nM | CN(C)Cc1ccc(-c2cccc(S(=O)(=O)n3ccc(/C=C/C(=O)Nc4ccccc4N)c3)c2)cc1 [Compound 102, (E)-N-(2-Amino-phenyl)-3-[1-(4′-dimethylaminomethyl-biphenyl-3-sulfonyl)-1H-pyrrol-3-yl]-acrylamide]
30 | 1.7 to 32000 nM | 1 to 940 nM | O=C(/C=C/c1ccn(S(=O)(=O)c2ccc(-c3cccc(OCCCN4CCOCC4)c3)cc2)c1)NO [Compound 74, (E)-N-Hydroxy-3-{1-[3′-(3-morpholin-4-yl-propoxy)-biphenyl-4-sulfonyl]-1H-pyrrol-3-yl}-acrylamide]
31 | 0.32 to 10000 nM | 1 to 940 nM | CS(=O)(=O)Nc1cccc(-c2ccc(S(=O)(=O)n3ccc(/C=C/C(=O)Nc4ccccc4N)c3)cc2)c1 [Compound 59, (E)-N-(2-Amino-phenyl)-3-[1-(3′-methanesulfonylamino-biphenyl-4-sulfonyl)-1H-pyrrol-3-yl]-acrylamide]
